Measured values: the supplement of paper PMC10849652
The other results are listed elsewhere or left out.

Amino acid sequences for entries named in this document (tags omitted). A change or cut given only in a name is not applied to a line headed by its entry.
UniProt Q14978: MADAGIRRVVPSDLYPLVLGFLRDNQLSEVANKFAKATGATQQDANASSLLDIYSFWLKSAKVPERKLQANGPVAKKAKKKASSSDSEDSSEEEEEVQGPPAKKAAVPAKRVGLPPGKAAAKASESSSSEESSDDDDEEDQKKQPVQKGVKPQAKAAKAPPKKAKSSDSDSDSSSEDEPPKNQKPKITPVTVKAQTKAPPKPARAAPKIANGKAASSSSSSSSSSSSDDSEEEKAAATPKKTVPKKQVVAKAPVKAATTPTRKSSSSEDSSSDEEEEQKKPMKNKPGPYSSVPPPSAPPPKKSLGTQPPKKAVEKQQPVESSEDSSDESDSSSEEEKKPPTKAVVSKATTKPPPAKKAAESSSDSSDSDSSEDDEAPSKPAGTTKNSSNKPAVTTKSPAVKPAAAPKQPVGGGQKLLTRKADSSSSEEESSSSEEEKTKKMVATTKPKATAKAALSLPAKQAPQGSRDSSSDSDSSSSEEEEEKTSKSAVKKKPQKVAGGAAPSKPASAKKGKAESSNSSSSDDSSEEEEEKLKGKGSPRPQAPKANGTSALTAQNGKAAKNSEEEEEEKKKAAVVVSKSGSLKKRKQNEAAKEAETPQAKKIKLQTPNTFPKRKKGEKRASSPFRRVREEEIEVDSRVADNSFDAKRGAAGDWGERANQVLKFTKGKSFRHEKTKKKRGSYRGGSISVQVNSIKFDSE
UniProt Q92636: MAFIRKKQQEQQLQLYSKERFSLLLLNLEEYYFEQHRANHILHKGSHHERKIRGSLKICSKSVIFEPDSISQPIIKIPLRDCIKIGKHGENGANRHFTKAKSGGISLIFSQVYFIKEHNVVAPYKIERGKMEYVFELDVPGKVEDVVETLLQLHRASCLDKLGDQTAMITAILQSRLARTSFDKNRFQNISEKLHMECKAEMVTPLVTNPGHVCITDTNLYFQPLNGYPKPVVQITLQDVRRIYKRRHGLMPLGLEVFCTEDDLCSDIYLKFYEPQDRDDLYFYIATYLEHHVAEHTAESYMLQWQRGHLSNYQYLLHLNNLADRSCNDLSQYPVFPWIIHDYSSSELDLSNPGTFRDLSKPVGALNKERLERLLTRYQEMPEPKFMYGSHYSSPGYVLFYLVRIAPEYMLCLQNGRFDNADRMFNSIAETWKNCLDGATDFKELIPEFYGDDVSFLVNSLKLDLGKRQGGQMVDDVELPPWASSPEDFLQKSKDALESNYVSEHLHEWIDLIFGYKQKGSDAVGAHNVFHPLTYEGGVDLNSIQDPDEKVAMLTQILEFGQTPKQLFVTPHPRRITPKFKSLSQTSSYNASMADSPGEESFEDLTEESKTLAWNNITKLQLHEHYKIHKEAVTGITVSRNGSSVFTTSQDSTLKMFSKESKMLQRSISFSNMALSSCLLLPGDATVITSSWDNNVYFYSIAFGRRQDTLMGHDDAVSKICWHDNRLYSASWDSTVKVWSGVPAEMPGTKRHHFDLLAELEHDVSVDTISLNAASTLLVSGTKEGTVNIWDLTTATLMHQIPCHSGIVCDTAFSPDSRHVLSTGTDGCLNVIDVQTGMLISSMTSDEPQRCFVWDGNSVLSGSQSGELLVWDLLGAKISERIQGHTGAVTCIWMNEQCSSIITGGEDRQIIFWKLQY
UniProt Q96D46: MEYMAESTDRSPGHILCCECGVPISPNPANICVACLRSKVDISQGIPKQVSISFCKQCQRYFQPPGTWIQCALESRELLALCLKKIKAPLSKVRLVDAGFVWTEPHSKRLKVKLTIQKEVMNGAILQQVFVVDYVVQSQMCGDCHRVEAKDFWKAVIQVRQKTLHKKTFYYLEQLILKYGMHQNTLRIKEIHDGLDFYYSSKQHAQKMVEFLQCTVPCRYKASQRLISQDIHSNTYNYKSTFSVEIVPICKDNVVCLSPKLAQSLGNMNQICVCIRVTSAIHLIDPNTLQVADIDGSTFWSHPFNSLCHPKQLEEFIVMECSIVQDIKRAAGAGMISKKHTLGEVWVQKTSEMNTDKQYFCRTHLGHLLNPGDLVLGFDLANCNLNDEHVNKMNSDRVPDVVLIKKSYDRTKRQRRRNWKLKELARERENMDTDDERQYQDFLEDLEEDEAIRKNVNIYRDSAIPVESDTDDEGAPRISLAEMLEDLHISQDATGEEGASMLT
UniProt P49790, whole entry, looked up: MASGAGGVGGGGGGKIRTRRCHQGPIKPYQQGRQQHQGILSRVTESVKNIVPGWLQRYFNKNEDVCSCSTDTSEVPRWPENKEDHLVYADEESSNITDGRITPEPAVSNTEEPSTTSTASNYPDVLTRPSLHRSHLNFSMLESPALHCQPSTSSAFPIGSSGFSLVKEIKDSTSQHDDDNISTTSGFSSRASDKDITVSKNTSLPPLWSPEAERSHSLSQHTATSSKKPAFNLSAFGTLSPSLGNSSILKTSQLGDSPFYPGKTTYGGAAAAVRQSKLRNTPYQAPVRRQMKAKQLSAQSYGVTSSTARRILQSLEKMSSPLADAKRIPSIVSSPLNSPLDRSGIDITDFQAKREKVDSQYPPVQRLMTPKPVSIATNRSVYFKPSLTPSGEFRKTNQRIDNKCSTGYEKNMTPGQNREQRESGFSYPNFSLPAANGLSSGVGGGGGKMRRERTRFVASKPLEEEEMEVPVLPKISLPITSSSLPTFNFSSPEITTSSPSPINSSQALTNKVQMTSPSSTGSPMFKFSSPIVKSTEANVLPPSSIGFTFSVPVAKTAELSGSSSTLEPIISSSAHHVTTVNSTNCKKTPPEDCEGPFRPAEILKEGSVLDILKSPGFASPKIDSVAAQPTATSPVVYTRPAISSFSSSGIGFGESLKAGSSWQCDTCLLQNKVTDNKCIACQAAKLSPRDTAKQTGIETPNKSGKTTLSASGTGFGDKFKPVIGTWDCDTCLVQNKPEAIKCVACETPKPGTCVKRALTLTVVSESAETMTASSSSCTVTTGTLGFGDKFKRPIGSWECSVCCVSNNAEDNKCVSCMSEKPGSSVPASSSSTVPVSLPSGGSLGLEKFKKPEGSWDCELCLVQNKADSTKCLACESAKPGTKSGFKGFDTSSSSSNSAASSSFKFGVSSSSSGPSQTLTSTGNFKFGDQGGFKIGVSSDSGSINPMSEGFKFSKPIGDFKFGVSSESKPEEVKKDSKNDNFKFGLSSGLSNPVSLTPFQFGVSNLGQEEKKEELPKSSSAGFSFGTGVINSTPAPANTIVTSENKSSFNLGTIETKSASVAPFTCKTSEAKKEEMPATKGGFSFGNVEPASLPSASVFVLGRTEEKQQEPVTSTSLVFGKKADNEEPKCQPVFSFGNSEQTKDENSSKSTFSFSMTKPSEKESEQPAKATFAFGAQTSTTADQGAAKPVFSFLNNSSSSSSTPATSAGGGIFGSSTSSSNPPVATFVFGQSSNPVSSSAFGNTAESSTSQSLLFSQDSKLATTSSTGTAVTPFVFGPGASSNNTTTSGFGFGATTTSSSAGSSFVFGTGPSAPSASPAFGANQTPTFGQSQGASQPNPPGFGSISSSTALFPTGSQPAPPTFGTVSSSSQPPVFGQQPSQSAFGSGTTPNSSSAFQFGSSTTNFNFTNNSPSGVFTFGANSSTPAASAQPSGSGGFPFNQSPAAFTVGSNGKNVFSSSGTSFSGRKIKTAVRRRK
UniProt Q13232: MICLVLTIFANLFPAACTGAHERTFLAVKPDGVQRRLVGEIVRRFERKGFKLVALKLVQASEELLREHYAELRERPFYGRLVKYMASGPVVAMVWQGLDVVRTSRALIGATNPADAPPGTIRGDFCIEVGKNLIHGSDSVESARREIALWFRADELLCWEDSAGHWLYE
UniProt P46087: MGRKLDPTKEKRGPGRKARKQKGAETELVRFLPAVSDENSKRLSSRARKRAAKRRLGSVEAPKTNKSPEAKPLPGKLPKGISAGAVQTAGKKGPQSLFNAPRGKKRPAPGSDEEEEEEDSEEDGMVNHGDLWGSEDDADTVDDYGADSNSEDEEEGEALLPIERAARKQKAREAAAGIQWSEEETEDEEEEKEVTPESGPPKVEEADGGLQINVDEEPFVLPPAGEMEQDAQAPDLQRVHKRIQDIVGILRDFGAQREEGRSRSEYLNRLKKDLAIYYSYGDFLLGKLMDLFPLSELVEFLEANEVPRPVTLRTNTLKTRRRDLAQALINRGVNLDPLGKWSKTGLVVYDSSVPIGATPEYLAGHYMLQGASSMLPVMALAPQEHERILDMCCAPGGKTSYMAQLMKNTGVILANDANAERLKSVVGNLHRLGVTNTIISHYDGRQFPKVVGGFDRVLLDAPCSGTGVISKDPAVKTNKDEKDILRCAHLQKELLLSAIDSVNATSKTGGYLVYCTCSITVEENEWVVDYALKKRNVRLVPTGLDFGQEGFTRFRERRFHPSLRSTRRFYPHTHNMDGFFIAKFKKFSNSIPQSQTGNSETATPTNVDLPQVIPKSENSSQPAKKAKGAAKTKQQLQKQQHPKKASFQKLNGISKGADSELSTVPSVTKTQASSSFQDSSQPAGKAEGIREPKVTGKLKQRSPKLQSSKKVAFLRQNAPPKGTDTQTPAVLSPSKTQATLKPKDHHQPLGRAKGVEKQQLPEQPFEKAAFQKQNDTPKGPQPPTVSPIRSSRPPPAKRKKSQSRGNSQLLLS
UniProt P78549: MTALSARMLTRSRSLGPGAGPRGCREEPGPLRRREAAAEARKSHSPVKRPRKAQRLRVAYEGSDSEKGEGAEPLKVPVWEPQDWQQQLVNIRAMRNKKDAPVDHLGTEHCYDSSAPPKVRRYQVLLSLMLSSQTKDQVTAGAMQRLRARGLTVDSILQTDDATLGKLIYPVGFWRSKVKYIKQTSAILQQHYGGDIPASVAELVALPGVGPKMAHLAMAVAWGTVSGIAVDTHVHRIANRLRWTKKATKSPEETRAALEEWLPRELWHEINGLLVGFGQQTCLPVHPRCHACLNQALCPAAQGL
UniProt Q9Y5B8, whole entry, looked up: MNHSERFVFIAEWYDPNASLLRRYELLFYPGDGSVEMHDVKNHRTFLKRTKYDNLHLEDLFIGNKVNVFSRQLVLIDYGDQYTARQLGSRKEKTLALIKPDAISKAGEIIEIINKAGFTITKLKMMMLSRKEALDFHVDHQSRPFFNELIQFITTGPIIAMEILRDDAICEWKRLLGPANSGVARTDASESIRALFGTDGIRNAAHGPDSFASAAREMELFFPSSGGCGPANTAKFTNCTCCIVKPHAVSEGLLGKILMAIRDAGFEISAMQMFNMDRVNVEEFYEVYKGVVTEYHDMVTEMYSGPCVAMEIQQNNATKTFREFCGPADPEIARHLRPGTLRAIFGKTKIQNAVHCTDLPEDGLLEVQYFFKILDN
UniProt Q8IVD9: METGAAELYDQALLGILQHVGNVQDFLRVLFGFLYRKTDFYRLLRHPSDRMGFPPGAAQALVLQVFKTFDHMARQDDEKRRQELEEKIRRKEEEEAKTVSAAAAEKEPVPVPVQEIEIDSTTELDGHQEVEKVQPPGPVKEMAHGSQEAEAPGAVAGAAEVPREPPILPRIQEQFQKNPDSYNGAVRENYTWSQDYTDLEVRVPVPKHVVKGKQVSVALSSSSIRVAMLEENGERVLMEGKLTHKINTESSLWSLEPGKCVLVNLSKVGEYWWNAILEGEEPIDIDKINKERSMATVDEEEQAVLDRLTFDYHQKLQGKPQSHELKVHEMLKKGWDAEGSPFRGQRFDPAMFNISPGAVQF
UniProt P78316: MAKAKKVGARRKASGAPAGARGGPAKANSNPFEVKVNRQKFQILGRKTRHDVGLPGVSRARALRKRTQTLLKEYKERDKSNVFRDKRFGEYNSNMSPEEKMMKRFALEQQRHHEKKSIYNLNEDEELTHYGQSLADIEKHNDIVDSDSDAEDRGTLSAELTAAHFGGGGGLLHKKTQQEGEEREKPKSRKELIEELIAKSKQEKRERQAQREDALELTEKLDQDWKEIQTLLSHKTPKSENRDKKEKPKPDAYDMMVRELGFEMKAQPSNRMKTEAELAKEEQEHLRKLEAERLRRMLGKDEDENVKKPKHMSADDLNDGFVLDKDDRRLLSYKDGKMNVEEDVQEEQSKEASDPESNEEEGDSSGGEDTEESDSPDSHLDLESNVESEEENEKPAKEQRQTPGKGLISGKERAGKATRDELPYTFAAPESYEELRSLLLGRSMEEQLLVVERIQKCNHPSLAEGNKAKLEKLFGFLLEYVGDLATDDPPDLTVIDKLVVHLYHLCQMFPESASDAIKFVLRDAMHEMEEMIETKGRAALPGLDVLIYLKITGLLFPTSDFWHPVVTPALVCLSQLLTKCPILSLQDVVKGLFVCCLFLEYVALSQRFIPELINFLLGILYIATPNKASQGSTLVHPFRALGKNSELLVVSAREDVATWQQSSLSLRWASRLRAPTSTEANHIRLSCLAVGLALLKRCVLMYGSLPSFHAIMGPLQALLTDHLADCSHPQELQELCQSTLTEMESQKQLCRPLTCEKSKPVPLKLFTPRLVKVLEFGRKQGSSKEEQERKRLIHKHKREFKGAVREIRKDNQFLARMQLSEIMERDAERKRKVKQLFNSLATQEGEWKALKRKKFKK

Columns and labels:
Assay in all cases: log2 fold change, soluble protein after heating vs DMSO (PISA); higher = thermal stabilisation; K562 lysate, 10 uM; active = over 0.2 and 3.5 SD of the protein, either way, in both replicates (recomputed)
erlotinib = compound: C#Cc1cccc(Nc2ncnc3cc(OCCOC)c(OCCOC)cc23)c1 [erlotinib]
How it was run: (§1)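 A 30 min treatment with 10 μM compound was applied to crude K562 extract at 1 mg/mL protein in PBS pH 7.4 with 1 mM MgCl2. Heating for 3 min spanned 48°C-58°C, after which aliquots were pooled, adjusted to 0.5% NP-40 at 4°C and spun at 21,000xg for 90 min. TMTpro 16plex LC-MS/MS of the supernatant, with channel sums equalised, gave values recorded as log-two fold change in thermal stability against solvent controls, from duplicates.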

[1] = compound: C/C(=N\NC(=O)C1=CC(=CC=C1)S(=O)(=O)N2CCOCC2)/C3=C(C=CC(=C3)Cl)O
How it was run: as §1

[2] = compound: C1=CC(=CC=C1C2=NC3=C(N2)C=C(C=C3)C(=O)N)OC4=CC=C(C=C4)Cl
How it was run: as §1

[3] = compound: C1=CC2=C(C=CC(=C2)/C=C\3/C(=O)NC(=NCC4=CC=CS4)S3)N=C1
How it was run: as §1

[4] = compound: C1=CC2=NC=CN=C2C=C1/C=C/3\C(=O)NC(=O)S3
How it was run: as §1

[5] = compound: C1=CC=C(C=C1)C2=NC(=C(N2)C3=CC=NC=C3)C4=CC(=C(C=C4)Cl)O
How it was run: as §1

[6] = compound: C1=CC=C2C(=C1)C3=NNC4=CC=CC(=C43)C2=O
How it was run: as §1

[7] = compound: C1CCN(C1)C(=O)NC2=CC=CC(=C2)NC3=NC=C(C(=N3)NCCC4=CN=CN4)Br
How it was run: as §1

[8] = compound: C1CN(CCC1(CC2=CC=C(C=C2)Cl)N)C3=NC=NC4=C3C=CN4
How it was run: as §1

IRAK-1-4 Inhibitor I = compound: C1COCCN1CCN2C3=CC=CC=C3N=C2NC(=O)C4=CC(=CC=C4)[N+](=O)[O-] [IRAK-1-4 Inhibitor I]
How it was run: as §1

ibrutinib = compound: C=CC(=O)N1CCC[C@@H](n2nc(-c3ccc(Oc4ccccc4)cc3)c3c(N)ncnc32)C1 [ibrutinib]
How it was run: as §1

[9] = compound: CC(=O)c1cnc2ccc(-c3cc(Cl)c(O)c(Cl)c3)nc2c1N[C@H]1CC[C@H](CN(C)C)CC1
How it was run: as §1

ralimetinib = compound: CC(C)(C)Cn1c(N)nc2ccc(-c3[nH]c(C(C)(C)C)nc3-c3ccc(F)cc3)nc21 [ralimetinib]
How it was run: as §1

[10] = compound: CC(C)(O)CC(=O)NCCn1ccc2ncnc(Nc3ccc(Oc4cccc(C(F)(F)F)c4)c(Cl)c3)c21
How it was run: as §1

[11] = compound: CC(C)C1=C2N=C(C=C(N2N=C1)NCC3=CC=CC=C3)NCCCCCCN
How it was run: as §1

[12] = compound: CC1=C(C(CC(=O)N1)C2=CC=C(C=C2)C(F)(F)F)C(=O)NC3=C(C=C4C(=C3)C=NN4)F
How it was run: as §1

[13] = compound: CC1=C(C2=C(C=C1)C(=O)C3=CC=CC=C3N2CCCN)C
How it was run: as §1

[14] = compound: CC1=C(C=C(C=C1)NC(=O)C2=CC(=CC=C2)C(C)(C)C#N)NC3=CC4=C(C=C3)N=CN(C4=O)C
How it was run: as §1

[15] = compound: CC1=C(C=C(C=C1)NC(=O)C2=CC(=CC=C2)N(C)C)NC(=O)C3=CC=C(C=C3)O
How it was run: as §1

[16] = compound: CC1=CC=C(C=C1)SC2=C3C=C(SC3=CN=C2)C(=O)N
How it was run: as §1

Target | log2 fold change (erlotinib) | log2 fold change [1] | log2 fold change [2] | log2 fold change [3] | log2 fold change [4] | log2 fold change [5] | log2 fold change [6] | log2 fold change [7] | log2 fold change [8] | log2 fold change (IRAK-1-4 Inhibitor I) | log2 fold change (ibrutinib) | log2 fold change [9] | log2 fold change (ralimetinib) | log2 fold change [10] | log2 fold change [11] | log2 fold change [12] | log2 fold change [13] | log2 fold change [14] | log2 fold change [15] | log2 fold change [16]
NOLC1 isoform 2 (UniProt Q14978) | inactive: -0.015 | inactive: 0.006 | inactive: -0.013 | inactive: -0.028 | inactive: -0.071 | inactive: 0.008 | inactive: 0.029 | inactive: 0.011 | inactive: -0.016 | inactive: 0.013 | inactive: 0.011 | inactive: -0.008 | inactive: -0.01 | inactive: -0.003 | inactive: 0.013 | inactive: -0.03 | inactive: -0.027 | inactive: 0.031 | inactive: -0.016 | inactive: -0.009
NSMAF (UniProt Q92636) | inactive: -0.024 | inactive: -0.047 | inactive: -0.001 | inactive: 0.038 | inactive: 0.029 | inactive: -0.013 | inactive: -0.003 | inactive: -0.007 | inactive: -0.002 | inactive: 0.021 | inactive: -0.037 | inactive: -0.015 | inactive: 0.011 | inactive: 0.002 | inactive: 0.014 | inactive: 0.002 | inactive: -0.002 | inactive: 0.01 | inactive: 0.01 | inactive: 0.024
NMD3 (UniProt Q96D46) | inactive: 0.013 | inactive: 0.034 | inactive: 0.001 | inactive: -0.017 | inactive: 0.015 | inactive: 0.013 | inactive: -0.007 | inactive: -0.005 | inactive: 0 | inactive: -0.015 | inactive: 0.014 | inactive: -0.009 | inactive: -0.001 | inactive: 0.01 | inactive: 0.001 | inactive: -0.024 | inactive: -0.014 | inactive: 0.015 | inactive: -0.009 | inactive: -0.004
NUP153 (UniProt P49790) | inactive: 0.002 | inactive: 0.016 | inactive: 0.073 | inactive: -0.011 | inactive: -0.035 | inactive: 0.011 | inactive: -0.019 | inactive: -0.013 | inactive: 0.01 | inactive: -0.003 | inactive: 0.007 | inactive: -0.016 | inactive: -0.002 | inactive: -0.032 | inactive: 0 | inactive: 0.04 | inactive: -0.007 | inactive: 0.002 | inactive: 0.003 | inactive: -0.002
NME3 (UniProt Q13232) | inactive: 0.02 | inactive: 0.019 | inactive: 0.052 | inactive: 0.027 | inactive: 0.129 | inactive: -0.017 | inactive: -0.071 | inactive: 0.016 | inactive: 0.012 | inactive: -0.012 | inactive: -0.04 | inactive: 0.012 | inactive: -0.043 | inactive: -0.025 | inactive: -0.046 | inactive: 0.022 | inactive: -0.043 | inactive: 0.007 | inactive: 0.011 | inactive: -0.019
NOP2 isoform 4 (UniProt P46087) | inactive: -0.013 | inactive: -0.076 | inactive: -0.027 | inactive: -0.013 | inactive: -0.024 | inactive: -0.016 | inactive: 0.037 | inactive: 0.064 | inactive: 0.005 | inactive: 0.008 | inactive: 0.025 | inactive: 0.006 | inactive: 0.017 | inactive: -0.021 | inactive: -0.003 | inactive: 0.01 | inactive: -0.028 | inactive: 0.004 | inactive: 0.001 | inactive: 0.006
NTHL1 (UniProt P78549) | inactive: 0.128 | inactive: 0.171 | inactive: -0.013 | inactive: -0.086 | inactive: 0.213 | inactive: 0.069 | inactive: 0.022 | inactive: -0.022 | inactive: 0.012 | inactive: 0.033 | inactive: 0 | inactive: -0.157 | inactive: -0.145 | inactive: 0.015 | inactive: 0.03 | inactive: -0.089 | inactive: -0.082 | inactive: -0.158 | inactive: 0.072 | inactive: -0.076
NR2C2AP isoform 2 (UniProt Q86WQ0) | inactive: -0.063 | inactive: -0.022 | inactive: -0.006 | inactive: -0.042 | inactive: 0.077 | inactive: 0.011 | inactive: -0.043 | inactive: 0.091 | inactive: 0.047 | inactive: 0.004 | inactive: 0.005 | inactive: -0.028 | inactive: 0.005 | inactive: -0.028 | inactive: 0.005 | inactive: 0.026 | inactive: 0.097 | inactive: 0.043 | inactive: -0.048 | inactive: -0.004
NUDT16 (UniProt Q96DE0) | inactive: 0.009 | inactive: 0.072 | inactive: 0.026 | inactive: 0.08 | inactive: -0.009 | inactive: -0.004 | inactive: -0.027 | inactive: -0.014 | inactive: 0.027 | inactive: 0.057 | inactive: 0.045 | inactive: -0.006 | inactive: -0.011 | inactive: -0.007 | inactive: -0.038 | inactive: -0.025 | inactive: -0.051 | inactive: 0.036 | inactive: -0.007 | inactive: 0.002
NT5DC2 isoform 2 (UniProt Q9H857) | inactive: 0.027 | inactive: 0.008 | inactive: 0.068 | inactive: 0.03 | active: 0.505 | inactive: -0.059 | inactive: 0.04 | inactive: -0.015 | inactive: 0.036 | inactive: 0.002 | inactive: 0 | inactive: -0.066 | inactive: -0.015 | inactive: -0.026 | inactive: 0 | inactive: -0.002 | inactive: -0.015 | inactive: 0.008 | inactive: 0.04 | inactive: -0.025
NT5C3B (UniProt Q969T7) | inactive: 0.071 | inactive: 0.008 | inactive: -0.007 | inactive: -0.006 | inactive: -0.042 | inactive: 0.034 | inactive: 0.08 | inactive: -0.006 | inactive: 0.076 | inactive: 0.003 | inactive: 0.08 | inactive: -0.004 | inactive: 0.04 | inactive: -0.014 | inactive: 0.058 | inactive: -0.036 | inactive: 0.023 | inactive: 0.057 | inactive: 0.004 | inactive: -0.009
NT5DC1 (UniProt Q5TFE4) | inactive: -0.014 | inactive: 0.009 | inactive: 0.013 | inactive: 0.036 | inactive: -0.013 | inactive: -0.017 | inactive: 0.025 | inactive: -0.031 | inactive: 0 | inactive: 0.004 | inactive: 0.03 | inactive: 0.022 | inactive: 0.025 | inactive: -0.032 | inactive: -0.019 | inactive: 0.027 | inactive: 0.004 | inactive: 0.069 | inactive: 0.015 | inactive: -0.011
NME7 (UniProt Q9Y5B8) | inactive: -0.021 | inactive: 0.043 | inactive: 0.034 | inactive: -0.015 | inactive: 0.009 | inactive: 0.004 | inactive: -0.036 | inactive: -0.002 | inactive: 0.007 | inactive: 0.012 | inactive: 0.011 | inactive: 0.029 | inactive: 0.039 | inactive: 0.018 | inactive: 0.02 | inactive: -0.068 | inactive: -0.007 | inactive: -0.015 | inactive: -0.023 | inactive: -0.017
NUDCD3 (UniProt Q8IVD9) | inactive: -0.013 | inactive: 0.014 | inactive: -0.009 | inactive: -0.019 | inactive: -0.009 | inactive: -0.021 | inactive: 0.024 | inactive: -0.003 | inactive: -0.019 | inactive: 0.001 | inactive: 0.002 | inactive: -0.007 | inactive: 0.021 | inactive: 0 | inactive: -0.057 | inactive: 0.005 | inactive: 0.009 | inactive: 0.034 | inactive: -0.009 | inactive: 0.004
NUDT4 isoform 2 (UniProt Q9NZJ9) | inactive: 0.023 | inactive: 0.015 | inactive: 0.05 | inactive: -0.048 | inactive: 0.015 | inactive: -0.007 | inactive: -0.005 | inactive: -0.069 | inactive: 0.032 | inactive: -0.006 | inactive: -0.006 | inactive: 0.002 | inactive: 0.035 | inactive: -0.044 | inactive: -0.006 | inactive: 0.016 | inactive: -0.054 | inactive: 0.034 | inactive: 0.024 | inactive: -0.024
NOP14 (UniProt P78316) | inactive: 0.047 | inactive: 0.052 | inactive: -0.058 | inactive: 0.005 | inactive: -0.036 | inactive: -0.04 | inactive: 0.004 | inactive: 0.022 | inactive: -0.004 | inactive: -0.009 | inactive: 0.011 | inactive: -0.016 | inactive: 0.025 | inactive: 0.041 | inactive: 0.017 | inactive: 0.02 | inactive: -0.024 | inactive: -0.003 | inactive: 0.01 | inactive: 0.005

An excerpt from above, limited to log2 fold change [15] and log2 fold change (erlotinib):
Target,log2 fold change [15],log2 fold change (erlotinib)
NT5DC2 isoform 2 (UniProt Q9H857),inactive: 0.04,inactive: 0.027
NT5C3B (UniProt Q969T7),inactive: 0.004,inactive: 0.071
